# Experimental data published in publication PMC13558869.
# Protein sequences, listed by entry. Tags and fused reporters are not part of them.
# UniProt Q5VSL9: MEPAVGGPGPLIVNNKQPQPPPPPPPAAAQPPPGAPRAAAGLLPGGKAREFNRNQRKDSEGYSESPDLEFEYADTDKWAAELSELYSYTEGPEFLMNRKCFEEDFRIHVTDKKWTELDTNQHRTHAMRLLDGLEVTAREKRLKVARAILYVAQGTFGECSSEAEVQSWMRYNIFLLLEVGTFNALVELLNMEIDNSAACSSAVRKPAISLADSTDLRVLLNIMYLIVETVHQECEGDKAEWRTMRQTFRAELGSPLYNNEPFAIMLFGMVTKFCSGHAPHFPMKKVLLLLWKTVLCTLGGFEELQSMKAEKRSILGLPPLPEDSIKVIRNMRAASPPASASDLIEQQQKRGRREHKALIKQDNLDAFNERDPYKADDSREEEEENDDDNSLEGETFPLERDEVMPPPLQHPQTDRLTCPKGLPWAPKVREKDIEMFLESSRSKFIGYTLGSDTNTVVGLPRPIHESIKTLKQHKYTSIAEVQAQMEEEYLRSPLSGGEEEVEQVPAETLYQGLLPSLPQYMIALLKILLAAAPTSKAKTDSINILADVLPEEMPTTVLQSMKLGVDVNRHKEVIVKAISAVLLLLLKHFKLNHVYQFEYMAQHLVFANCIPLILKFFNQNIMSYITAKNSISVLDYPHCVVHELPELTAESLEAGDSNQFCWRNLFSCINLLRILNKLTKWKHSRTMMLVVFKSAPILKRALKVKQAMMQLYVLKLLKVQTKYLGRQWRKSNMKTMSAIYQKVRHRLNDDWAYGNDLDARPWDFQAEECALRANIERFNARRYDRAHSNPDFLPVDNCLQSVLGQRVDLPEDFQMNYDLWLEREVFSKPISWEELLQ
# UniProt O75381: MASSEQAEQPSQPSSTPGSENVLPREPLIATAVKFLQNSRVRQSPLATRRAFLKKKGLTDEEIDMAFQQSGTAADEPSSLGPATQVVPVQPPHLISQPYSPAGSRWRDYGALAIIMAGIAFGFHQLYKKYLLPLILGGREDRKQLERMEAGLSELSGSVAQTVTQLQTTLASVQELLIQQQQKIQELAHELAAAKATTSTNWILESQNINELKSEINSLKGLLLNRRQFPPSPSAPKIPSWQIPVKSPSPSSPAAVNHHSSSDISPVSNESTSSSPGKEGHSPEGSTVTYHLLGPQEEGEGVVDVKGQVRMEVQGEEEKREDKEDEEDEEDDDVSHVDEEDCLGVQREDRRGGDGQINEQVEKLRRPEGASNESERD
# UniProt O15234: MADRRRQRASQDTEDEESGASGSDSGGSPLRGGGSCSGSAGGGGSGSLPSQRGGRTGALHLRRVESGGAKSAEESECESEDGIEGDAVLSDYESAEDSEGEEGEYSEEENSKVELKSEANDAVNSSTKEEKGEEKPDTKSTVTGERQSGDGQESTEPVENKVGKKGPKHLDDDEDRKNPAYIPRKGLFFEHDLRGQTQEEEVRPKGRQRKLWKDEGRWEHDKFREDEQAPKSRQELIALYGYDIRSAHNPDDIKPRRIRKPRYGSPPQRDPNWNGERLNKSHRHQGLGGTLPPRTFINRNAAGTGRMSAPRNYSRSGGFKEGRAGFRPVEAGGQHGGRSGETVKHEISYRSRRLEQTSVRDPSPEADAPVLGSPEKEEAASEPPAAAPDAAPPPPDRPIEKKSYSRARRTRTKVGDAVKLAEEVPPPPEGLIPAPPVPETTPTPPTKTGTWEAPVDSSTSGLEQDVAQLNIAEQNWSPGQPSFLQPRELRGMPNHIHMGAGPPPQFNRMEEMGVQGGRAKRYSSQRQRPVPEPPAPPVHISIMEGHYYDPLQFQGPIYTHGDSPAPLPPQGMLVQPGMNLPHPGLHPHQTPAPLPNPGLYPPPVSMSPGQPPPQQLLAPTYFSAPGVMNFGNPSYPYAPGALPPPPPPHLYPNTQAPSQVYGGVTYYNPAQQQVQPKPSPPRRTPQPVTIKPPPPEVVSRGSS
# UniProt P11940: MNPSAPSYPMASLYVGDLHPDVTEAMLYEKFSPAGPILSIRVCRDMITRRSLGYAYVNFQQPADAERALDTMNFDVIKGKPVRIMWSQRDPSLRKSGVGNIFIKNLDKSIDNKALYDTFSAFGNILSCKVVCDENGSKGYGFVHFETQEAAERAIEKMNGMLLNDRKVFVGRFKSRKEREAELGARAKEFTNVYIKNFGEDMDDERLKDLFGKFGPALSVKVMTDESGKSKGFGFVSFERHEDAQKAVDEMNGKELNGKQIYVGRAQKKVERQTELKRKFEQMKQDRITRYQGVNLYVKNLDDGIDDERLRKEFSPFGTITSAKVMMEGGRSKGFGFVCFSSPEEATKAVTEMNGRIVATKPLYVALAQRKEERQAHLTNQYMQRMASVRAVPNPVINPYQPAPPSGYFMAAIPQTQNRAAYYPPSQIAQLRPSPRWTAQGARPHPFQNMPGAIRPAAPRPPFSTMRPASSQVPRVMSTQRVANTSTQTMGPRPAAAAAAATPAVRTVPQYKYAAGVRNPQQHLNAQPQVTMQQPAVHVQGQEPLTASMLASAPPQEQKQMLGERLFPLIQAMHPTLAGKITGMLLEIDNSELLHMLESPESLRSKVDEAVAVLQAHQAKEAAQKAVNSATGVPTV
# UniProt Q9HC16: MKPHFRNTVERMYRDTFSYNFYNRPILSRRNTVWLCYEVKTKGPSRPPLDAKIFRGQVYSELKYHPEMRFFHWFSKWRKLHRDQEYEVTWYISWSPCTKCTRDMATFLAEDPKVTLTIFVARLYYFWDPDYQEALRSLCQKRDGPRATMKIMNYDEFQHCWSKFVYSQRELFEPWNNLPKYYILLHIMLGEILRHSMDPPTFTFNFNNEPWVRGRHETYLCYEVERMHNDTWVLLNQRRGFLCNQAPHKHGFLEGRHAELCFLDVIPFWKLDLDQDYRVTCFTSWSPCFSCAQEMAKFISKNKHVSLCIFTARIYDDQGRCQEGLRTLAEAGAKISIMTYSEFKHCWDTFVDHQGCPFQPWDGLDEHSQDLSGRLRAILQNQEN
# UniProt P33241: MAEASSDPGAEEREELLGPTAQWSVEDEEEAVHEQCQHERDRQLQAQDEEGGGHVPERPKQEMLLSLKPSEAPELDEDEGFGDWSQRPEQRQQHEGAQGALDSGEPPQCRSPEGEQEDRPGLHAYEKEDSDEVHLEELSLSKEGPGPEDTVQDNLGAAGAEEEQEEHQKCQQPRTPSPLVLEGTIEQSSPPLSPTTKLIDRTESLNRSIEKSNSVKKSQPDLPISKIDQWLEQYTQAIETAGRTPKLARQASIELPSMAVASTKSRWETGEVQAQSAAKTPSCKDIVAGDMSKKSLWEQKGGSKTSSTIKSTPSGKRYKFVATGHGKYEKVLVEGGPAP
# UniProt Q658Y4: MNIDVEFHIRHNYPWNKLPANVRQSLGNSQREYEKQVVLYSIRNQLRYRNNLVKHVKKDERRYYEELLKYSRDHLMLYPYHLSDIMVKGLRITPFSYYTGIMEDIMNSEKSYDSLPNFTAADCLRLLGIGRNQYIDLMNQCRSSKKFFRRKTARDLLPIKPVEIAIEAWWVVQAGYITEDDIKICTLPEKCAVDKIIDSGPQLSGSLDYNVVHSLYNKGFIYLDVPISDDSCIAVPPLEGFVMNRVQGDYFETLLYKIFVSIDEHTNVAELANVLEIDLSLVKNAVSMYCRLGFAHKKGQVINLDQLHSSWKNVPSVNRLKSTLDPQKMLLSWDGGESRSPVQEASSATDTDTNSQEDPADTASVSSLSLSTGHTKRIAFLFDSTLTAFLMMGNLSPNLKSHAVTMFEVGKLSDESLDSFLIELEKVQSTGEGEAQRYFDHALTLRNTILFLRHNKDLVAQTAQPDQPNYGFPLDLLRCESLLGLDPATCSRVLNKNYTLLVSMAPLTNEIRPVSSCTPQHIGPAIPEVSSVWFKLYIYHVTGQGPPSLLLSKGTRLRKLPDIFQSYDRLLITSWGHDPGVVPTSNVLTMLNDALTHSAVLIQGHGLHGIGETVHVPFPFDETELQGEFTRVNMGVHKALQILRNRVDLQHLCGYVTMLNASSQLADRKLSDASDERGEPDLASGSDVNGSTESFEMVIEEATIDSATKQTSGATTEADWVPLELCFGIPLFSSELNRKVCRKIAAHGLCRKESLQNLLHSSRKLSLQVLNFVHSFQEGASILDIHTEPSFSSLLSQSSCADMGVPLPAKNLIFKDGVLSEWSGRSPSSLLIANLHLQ
# No constants are given. Whether binding was seen depends on the method and setting. In cells and extracts the contact can be indirect. A yes stands for co-enrichment or nearness to the bait. Other partners may have been found.
# T1: ZFP36L1 (human (endogenous in primary T cells)) (UniProt Q07352)
# T1 sequence: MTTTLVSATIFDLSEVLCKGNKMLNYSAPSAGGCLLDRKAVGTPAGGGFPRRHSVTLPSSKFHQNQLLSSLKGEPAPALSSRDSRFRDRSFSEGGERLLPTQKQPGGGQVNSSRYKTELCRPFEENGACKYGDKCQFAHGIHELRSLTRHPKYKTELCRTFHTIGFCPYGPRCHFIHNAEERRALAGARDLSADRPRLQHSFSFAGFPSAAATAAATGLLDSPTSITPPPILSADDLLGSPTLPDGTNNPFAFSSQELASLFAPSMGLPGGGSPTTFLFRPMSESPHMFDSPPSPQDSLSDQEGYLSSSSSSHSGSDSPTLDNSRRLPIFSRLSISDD
# B1: ZFP36L2 (protein, UniProt P47974 1-494)
# chain: MSTTLLSAFYDVDFLCKTEKSLANLNLNNMLDKKAVGTPVAAAPSSGFAPGFLRRHSASNLHALAHPAPSPGSCSPKFPGAANGSSCGSAAAGGPTSYGTLKEPSGGGGTALLNKENKFRDRSFSENGDRSQHLLHLQQQQKGGGGSQINSTRYKTELCRPFEESGTCKYGEKCQFAHGFHELRSLTRHPKYKTELCRTFHTIGFCPYGPRCHFIHNADERRPAPSGGASGDLRAFGTRDALHLGFPREPRPKLHHSLSFSGFPSGHHQPPGGLESPLLLDSPTSRTPPPPSCSSASSCSSSASSCSSASAASTPSGAPTCCASAAAAAAAALLYGTGGAEDLLAPGAPCAACSSASCANNAFAFGPELSSLITPLAIQTHNFAAVAAAAYYRSQQQQQQQGLAPPAQPPAPPSATLPAGAAAPPSPPFSFQLPRRLSDSPVFDAPPSPPDSLSDRDSYLSGSLSSGSLSGSESPSLDPGRRLPIFSRLSISDD
# B2: AIMP2 (protein, UniProt Q13155 1-320)
# chain: MPMYQVKPYHGGGAPLRVELPTCMYRLPNVHGRSYGPAPGAGHVQEESNLSLQALESRQDDILKRLYELKAAVDGLSKMIQTPDADLDVTNIIQADEPTTLTTNALDLNSVLGKDYGALKDIVINANPASPPLSLLVLHRLLCEHFRVLSTVHTHSSVKSVPENLLKCFGEQNKKQPRQDYQLGFTLIWKNVPKTQMKFSIQTMCPIEGEGNIARFLFSLFGQKHNAVNATLIDSWVDIAIFQLKEGSSKEKAAVFRSMNSALGKSPWLAGNELTVADVVLWSVLQQIGGCSVTVPANVQRWMRSCENLAPFNTALKLLK
# B3: WDR11 (protein, UniProt Q9BZH6 1-1224)
# chain: MLPYTVNFKVSARTLTGALNAHNKAAVDWGWQGLIAYGCHSLVVVIDSITAQTLQVLEKHKADVVKVKWARENYHHNIGSPYCLRLASADVNGKIIVWDVAAGVAQCEIQEHAKPIQDVQWLWNQDASRDLLLAIHPPNYIVLWNADTGTKLWKKSYADNILSFSFDPFDPSHLTLLTSEGIVFISDFSPSKPPSGPGKKVYISSPHSSPAHNKLATATGAKKALNKVKILITQEKPSAEFITLNDCLQLAYLPSKRNHMLLLYPREILILDLEVNQTVGVIAIERTGVPFLQVIPCFQRDGLFCLHENGCITLRVRRSYNNIFTTSNEEPDPDPVQELTYDLRSQCDAIRVTKTVRPFSMVCCPVNENAAALVVSDGRVMIWELKSAVCNRNSRNSSSGVSPLYSPVSFCGIPVGVLQNKLPDLSLDNMIGQSAIAGEEHPRGSILREVHLKFLLTGLLSGLPAPQFAIRMCPPLTTKNIKMYQPLLAVGTSNGSVLVYHLTSGLLHKELSIHSCEVKGIEWTSLTSFLSFATSTPNNMGLVRNELQLVDLPTGRSIAFRGERGNDESAIEMIKVSHLKQYLAVVFRDKPLELWDVRTCTLLREMSKNFPTITALEWSPSHNLKSLRKKQLATREAMARQTVVSDTELSIVESSVISLLQEAESKSELSQNISAREHFVFTDIDGQVYHLTVEGNSVKDSARIPPDGSMGSITCIAWKGDTLVLGDMDGNLNFWDLKGRVSRGIPTHRSWVRKIRFAPGKGNQKLIAMYNDGAEVWDTKEVQMVSSLRSGRNVTFRILDVDWCTSDKVILASDDGCIRVLEMSMKSACFRMDEQELTEPVWCPYLLVPRASLALKAFLLHQPWNGQYSLDISHVDYPENEEIKNLLQEQLNSLSNDIKKLLLDPEFTLLQRCLLVSRLYGDESELHFWTVAAHYLHSLSQEKSASTTAPKEAAPRDKLSNPLDICYDVLCENAYFQKFQLERVNLQEVKRSTYDHTRKCTDQLLLLGQTDRAVQLLLETSADNQHYYCDSLKACLVTTVTSSGPSQSTIKLVATNMIANGKLAEGVQLLCLIDKAADACRYLQTYGEWNRAAWLAKVRLNPEECADVLRRWVDHLCSPQVNQKSKALLVLLSLGCFFSVAETLHSMRYFDRAALFVEACLKYGAFEVTEDTEKLITAIYADYARSLKNLGFKQGAVLFASKAGAAGKDLLNELESPKEEPIEE
# B4: HAUS3 (protein, UniProt Q68CZ6 1-603)
# chain: MSCGNEFVETLKKIGYPKADNLNGEDFDWLFEGVEDESFLKWFCGNVNEQNVLSERELEAFSILQKSGKPILEGAALDEALKTCKTSDLKTPRLDDKELEKLEDEVQTLLKLKNLKIQRRNKCQLMASVTSHKSLRLNAKEEEATKKLKQSQGILNAMITKISNELQALTDEVTQLMMFFRHSNLGQGTNPLVFLSQFSLEKYLSQEEQSTAALTLYTKKQFFQGIHEVVESSNEDNFQLLDIQTPSICDNQEILEERRLEMARLQLAYICAQHQLIHLKASNSSMKSSIKWAEESLHSLTSKAVDKENLDAKISSLTSEIMKLEKEVTQIKDRSLPAVVRENAQLLNMPVVKGDFDLQIAKQDYYTARQELVLNQLIKQKASFELLQLSYEIELRKHRDIYRQLENLVQELSQSNMMLYKQLEMLTDPSVSQQINPRNTIDTKDYSTHRLYQVLEGENKKKELFLTHGNLEEVAEKLKQNISLVQDQLAVSAQEHSFFLSKRNKDVDMLCDTLYQGGNQLLLSDQELTEQFHKVESQLNKLNHLLTDILADVKTKRKTLANNKLHQMEREFYVYFLKDEDYLKDIVENLETQSKIKAVSLED
# B5: HAUS5 (protein, UniProt O94927 1-633)
# chain: MELAQEARELGCWAVEEMGVPVAARAPESTLRRLCLGQGADIWAYILQHVHSQRTVKKIRGNLLWYGHQDSPQVRRKLELEAAVTRLRAEIQELDQSLELMERDTEAQDTAMEQARQHTQDTQRRALLLRAQAGAMRRQQHTLRDPMQRLQNQLRRLQDMERKAKVDVTFGSLTSAALGLEPVVLRDVRTACTLRAQFLQNLLLPQAKRGSLPTPHDDHFGTSYQQWLSSVETLLTNHPPGHVLAALEHLAAEREAEIRSLCSGDGLGDTEISRPQAPDQSDSSQTLPSMVHLIQEGWRTVGVLVSQRSTLLKERQVLTQRLQGLVEEVERRVLGSSERQVLILGLRRCCLWTELKALHDQSQELQDAAGHRQLLLRELQAKQQRILHWRQLVEETQEQVRLLIKGNSASKTRLCRSPGEVLALVQRKVVPTFEAVAPQSRELLRCLEEEVRHLPHILLGTLLRHRPGELKPLPTVLPSIHQLHPASPRGSSFIALSHKLGLPPGKASELLLPAAASLRQDLLLLQDQRSLWCWDLLHMKTSLPPGLPTQELLQIQASQEKQQKENLGQALKRLEKLLKQALERIPELQGIVGDWWEQPGQAALSEELCQGLSLPQWRLRWVQAQGALQKLCS
# B6: Stau2 (protein, UniProt Q9NUL3 1-570)
# chain: MANPKEKTAMCLVNELARFNRVQPQYKLLNERGPAHSKMFSVQLSLGEQTWESEGSSIKKAQQAVANKALTESTLPKPVQKPPKSNVNNNPGSITPTVELNGLAMKRGEPAIYRPLDPKPFPNYRANYNFRGMYNQRYHCPVPKIFYVQLTVGNNEFFGEGKTRQAARHNAAMKALQALQNEPIPERSPQNGESGKDVDDDKDANKSEISLVFEIALKRNMPVSFEVIKESGPPHMKSFVTRVSVGEFSAEGEGNSKKLSKKRAATTVLQELKKLPPLPVVEKPKLFFKKRPKTIVKAGPEYGQGMNPISRLAQIQQAKKEKEPDYVLLSERGMPRRREFVMQVKVGNEVATGTGPNKKIAKKNAAEAMLLQLGYKASTNLQDQLEKTGENKGWSGPKPGFPEPTNNTPKGILHLSPDVYQEMEASRHKVISGTTLGYLSPKDMNQPSSSFFSISPTSNSSATIARELLMNGTSSTAEAIGLKGSSPTPPCSPVQPSKQLEYLARIQGFQAALSALKQFSEQGLDPIDGAMNIEKGSLEKQAKHLREKADNNQAPPGSIAQDCKKSNSAV
# B7: RBM27 (protein, UniProt Q9P2N5 1-1060)
# chain: MLIEDVDALKSWLAKLLEPICDADPSALANYVVALVKKDKPEKELKAFCADQLDVFLQKETSGFVDKLFESLYTKNYLPLLEPVKPEPKPLVQEKEEIKEEVFQEPAEEERDGRKKKYPSPQKTRSESSERRTREKKREDGKWRDYDRYYERNELYREKYDWRRGRSKSRSKSRGLSRSRSRSRGRSKDRDPNRNVEHRERSKFKSERNDLESSYVPVSAPPPNSSEQYSSGAQSIPSTVTVIAPAHHSENTTESWSNYYNNHSSSNSFGRNLPPKRRCRDYDERGFCVLGDLCQFDHGNDPLVVDEVALPSMIPFPPPPPGLPPPPPPGMLMPPMPGPGPGPGPGPGPGPGPGPGPGHSMRLPVPQGHGQPPPSVVLPIPRPPITQSSLINSRDQPGTSAVPNLASVGTRLPPPLPQNLLYTVSERQPMYSREHGAAASERLQLGTPPPLLAARLVPPRNLMGSSIGYHTSVSSPTPLVPDTYEPDGYNPEAPSITSSGRSQYRQFFSRTQTQRPNLIGLTSGDMDVNPRAANIVIQTEPPVPVSINSNITRVVLEPDSRKRAMSGLEGPLTKKPWLGKQGNNNQNKPGFLRKNQYTNTKLEVKKIPQELNNITKLNEHFSKFGTIVNIQVAFKGDPEAALIQYLTNEEARKAISSTEAVLNNRFIRVLWHRENNEQPTLQSSAQLLLQQQQTLSHLSQQHHHLPQHLHQQQVLVAQSAPSTVHGGIQKMMSKPQTSGAYVLNKVPVKHRLGHAGGNQSDASHLLNQSGGAGEDCQIFSTPGHPKMIYSSSNLKTPSKLCSGSKSHDVQEVLKKKQEAMKLQQDMRKKRQEVLEKQIECQKMLISKLEKNKNMKPEERANIMKTLKELGEKISQLKDELKTSSAVSTPSKVKTKTEAQKELLDTELDLHKRLSSGEDTTELRKKLSQLQVEAARLGILPVGRGKTMSSQGRGRGRGRGGRGRGSLNHMVVDHRPKALTVGGFIEEEKEDLLQHFSTANQGPKFKDRRLQISWHKPKVPSISTETEEEEVKEEETETSDLFLPDDDDEDEDEYESRSWRR
# Biological target: T1, ZFP36L1 (human (endogenous in primary T cells))
# Assay: affinity purification with mass spectrometry; Co-IP of endogenous ZFP36L1 with 10 μg anti-ZFP36L1 (1A3) or IgG control on Protein A Dynabeads, 4 h at 4°C, from cytoplasmic (1% digitonin) lysates of αCD3/αCD28-activated human CD3+ T cells at 0, 2, 5, 16 h; lysates untreated or treated with 200 U/ml RNAse A throughout; MS
row,Molecule,binding
1,STRIP1 (from UniProt Q5VSL9 1-837),binds
2,PEX14 (from UniProt O75381 1-377),binds
3,DISL3 (human (endogenous in primary T cells)),binds
4,CASC3 (from UniProt O15234 1-703),binds
5,Fam98A (from UniProt Q8NCA5 1-518),binds
6,PABPC1 (from UniProt P11940 1-636),binds
7,APOBEC3G (from UniProt Q9HC16 1-384),binds
8,LSP1 (from UniProt P33241 1-339),binds
9,FAM91A1 (from UniProt Q658Y4 1-838),binds
10,AGO3 (from UniProt Q9H9G7 1-860),binds
11,B1,binds
12,B2,binds
13,B3,binds
14,B4,binds
15,B5,binds
16,B6,binds
17,B7,binds
